Substitutions are numbered along the chain they refer to. Names may count otherwise. These are yes or no findings as the source states them, for the method shown. For some of these results: In cells and extracts the contact can be indirect. Some entries that bind do so weakly or less than the wild type. Tags and fused reporters may be left off the sequences shown.
Key:
[1] = molecular target: HYL1^C122R, BiFC fusion (Arabidopsis thaliana) (UniProt O04492); assay: split reporter; BiFC: cYFP-tagged and nYFP-tagged constructs cotransformed into Arabidopsis protoplasts, 22.5°C in darkness for 12 h, confocal microscopy
[2] = molecular target: HYL1^R130E, BiFC fusion (Arabidopsis thaliana) (UniProt O04492); assay: as above
[3] = molecular target: HYL1^T146R, BiFC fusion (Arabidopsis thaliana) (UniProt O04492); assay: as above
[4] = molecular target: HYL1^T146E, BiFC fusion (Arabidopsis thaliana) (UniProt O04492); assay: as above
[5] = molecular target: T1, HYPONASTIC LEAVES1 (HYL1), full-length, yeast two-hybrid fusion (Arabidopsis thaliana), O04492; assay: two-hybrid; library screen: pGBKT7 bait in Y2H Gold mated with the pistil library; selection on media lacking -Leu-Trp-Ade+3AT; conditions: remark: other sources report otherwise
T1 chain: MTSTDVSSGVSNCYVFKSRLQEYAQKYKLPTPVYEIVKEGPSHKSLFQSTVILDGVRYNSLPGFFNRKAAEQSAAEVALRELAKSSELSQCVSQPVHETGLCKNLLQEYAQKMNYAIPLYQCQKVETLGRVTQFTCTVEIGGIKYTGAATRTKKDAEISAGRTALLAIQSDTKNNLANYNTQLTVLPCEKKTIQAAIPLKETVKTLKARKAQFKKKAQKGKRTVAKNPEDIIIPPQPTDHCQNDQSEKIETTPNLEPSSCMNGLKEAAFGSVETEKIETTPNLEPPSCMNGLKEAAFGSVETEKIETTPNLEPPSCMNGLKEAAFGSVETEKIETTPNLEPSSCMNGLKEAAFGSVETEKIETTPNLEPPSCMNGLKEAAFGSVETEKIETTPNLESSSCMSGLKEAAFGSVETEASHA

[6] = molecular target: T1, HYPONASTIC LEAVES1 (HYL1), full-length, …; assay: two-hybrid; pGBKT7 (GAL4 DNA binding domain) and pGADT7 (activation domain) fusions cotransformed into yeast AH109; growth on SD/-Ade/-His/-Leu/-Trp; conditions: remark: other sources report otherwise
[7] = molecular target: HYL1^I158E, BiFC fusion (Arabidopsis thaliana) (UniProt O04492); assay: split reporter; BiFC: cYFP-tagged and nYFP-tagged constructs cotransformed into Arabidopsis protoplasts, 22.5°C in darkness for 12 h, confocal microscopy
[8] = molecular target: HYL1^L166E, BiFC fusion (Arabidopsis thaliana) (UniProt O04492); assay: as above
[9] = molecular target: T2, HYL1^G147E, BiFC fusion (Arabidopsis thaliana) (UniProt O04492); assay: as above
T2 sequence: T1 chain with G147E

[10] = molecular target: T3, HYL1^L165E, BiFC fusion (Arabidopsis thaliana) (UniProt O04492); assay: as above
T3 sequence: T1 chain with L165E

[11] = molecular target: T4, HYL1 R151E, BiFC fusion (Arabidopsis thaliana) (UniProt O04492); assay: split reporter; BiFC in Arabidopsis protoplasts, data not shown
T4 sequence: T1 chain with R151E

[12] = molecular target: T5, HYL1 R162E, BiFC fusion (Arabidopsis thaliana) (UniProt O04492); assay: as above
T5 sequence: T1 chain with R162E

[13] = molecular target: T6, HYL1 K154E, BiFC fusion (Arabidopsis thaliana) (UniProt O04492); assay: as above
T6 sequence: T1 chain with K154E

B1: HYL1^C122R, BiFC fusion (protein, UniProt O04492 1-419)
chain: T1 chain with C122R
[1]
  binding: binds

B2: HYL1^R130E, BiFC fusion (protein, UniProt O04492 1-419)
chain: T1 chain with R130E
[2]
  binding: binds

B3: HYL1^T146R, BiFC fusion (protein, UniProt O04492 1-419)
chain: T1 chain with T146R
[3]
  binding: binds

B4: HYL1^T146E, BiFC fusion (protein, UniProt O04492 1-419)
chain: T1 chain with T146E
[4]
  binding: binds

B5: HYPONASTIC LEAVES1 (HYL1), full-length, yeast two-hybrid fusion, O04492 1-419 (protein)
chain: T1 chain
[5]
  binding: binds
[6]
  binding: binds

B6: HYL1^I158E, BiFC fusion (protein, UniProt O04492 1-419)
chain: T1 chain with I158E
[7]
  binding: binds

B7: HYL1^L166E, BiFC fusion (protein, UniProt O04492 1-419)
chain: T1 chain with L166E
[8]
  binding: binds

B8: SE, BiFC fusion (protein, UniProt Q9ZVD0 1-720)
chain: MADVNLPPSDSVDNRLPEKSTSSSPPPPPPSSSLPQQEQEQDQQQLPLRRERDSRERRDERDIERPPPNRRERDRSPLPPPRRDYKRRPSLSPPPPYRDRRHSPPQRRSPPQKRYRRDDNGYDGRRGSPRGGYGPPDRRFGYDHGGGYDREMGGRPGYGDERPHGRFMGRYQDWEGGRGGYGDASNSGNPQRDGLMSYKQFIQELEDDILPSEAERRYQEYKSEYITTQKRAFFNTHKEEDWLKNKYHPTNLLSVIERRNDLAQKVAKDFLLDLQSGTLDLGPAVTALNKSGRTSEPNSEDEAAGVGKRKRHGMGGAKENELLSAAPKAPSFTSDPKRILTDVEQTQALVRKLDSEKKIEENVLQGSETEKSGREKLHSGSTGPVVIIRGLTSVKGLEGVELLDTLVTYLWRVHGLDYYGKVETNEAKGLRHVRAEGKVSDAKGDENESKFDSHWQERLKGQDPLEVMAAKEKIDAAATEALDPHVRKIRDEKYGWKYGCGAKGCTKLFHAAEFVYKHLKLKHTELVTELTTKVREELYFQNYMNDPNAPGGQPATQQSGPRDRPIRRKPSMENRLRDDRGGRRERDGRANGNDRNDRSEDQQRGDNDGGNPGEVGYDAFGGQGGVHVPPFLSDINPPPMLMPVPGAGPLGPFVPAPPEVAMQMFRDPSGPNPPFEGSGRGGPAPFLLSPAFRQDPRRLRSYQDLDAPEEEVTVIDYRSL
[9]
  binding: binds
[10]
  binding: binds
[11]
  binding: binds
[12]
  binding: binds
[13]
  binding: binds
